According to paper PMC5374530:
Where two headings read alike, the source gives them in different places. Results are given in words; binding and its absence hold for the method and conditions named. In cells and extracts the contact can be indirect. Some results given as binding are weak or reduced against the parent protein; the word gives no strength.

Protein sequences, listed by entry. Tags and fused reporters are not part of them. Lines headed by an entry give the natural chain unless they say otherwise; changes in a name come on top.
UniProt Q04899: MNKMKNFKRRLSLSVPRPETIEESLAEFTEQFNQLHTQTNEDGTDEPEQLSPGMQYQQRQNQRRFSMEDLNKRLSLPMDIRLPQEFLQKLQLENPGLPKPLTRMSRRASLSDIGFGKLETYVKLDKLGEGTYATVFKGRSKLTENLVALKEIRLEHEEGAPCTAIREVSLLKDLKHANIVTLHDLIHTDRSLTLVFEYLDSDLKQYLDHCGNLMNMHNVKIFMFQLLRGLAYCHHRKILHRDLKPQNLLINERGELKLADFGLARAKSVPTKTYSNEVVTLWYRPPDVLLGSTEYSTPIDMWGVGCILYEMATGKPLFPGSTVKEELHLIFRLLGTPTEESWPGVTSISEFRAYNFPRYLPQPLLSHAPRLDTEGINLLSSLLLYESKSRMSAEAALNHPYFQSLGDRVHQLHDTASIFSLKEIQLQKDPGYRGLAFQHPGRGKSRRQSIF
UniProt Q9Y490: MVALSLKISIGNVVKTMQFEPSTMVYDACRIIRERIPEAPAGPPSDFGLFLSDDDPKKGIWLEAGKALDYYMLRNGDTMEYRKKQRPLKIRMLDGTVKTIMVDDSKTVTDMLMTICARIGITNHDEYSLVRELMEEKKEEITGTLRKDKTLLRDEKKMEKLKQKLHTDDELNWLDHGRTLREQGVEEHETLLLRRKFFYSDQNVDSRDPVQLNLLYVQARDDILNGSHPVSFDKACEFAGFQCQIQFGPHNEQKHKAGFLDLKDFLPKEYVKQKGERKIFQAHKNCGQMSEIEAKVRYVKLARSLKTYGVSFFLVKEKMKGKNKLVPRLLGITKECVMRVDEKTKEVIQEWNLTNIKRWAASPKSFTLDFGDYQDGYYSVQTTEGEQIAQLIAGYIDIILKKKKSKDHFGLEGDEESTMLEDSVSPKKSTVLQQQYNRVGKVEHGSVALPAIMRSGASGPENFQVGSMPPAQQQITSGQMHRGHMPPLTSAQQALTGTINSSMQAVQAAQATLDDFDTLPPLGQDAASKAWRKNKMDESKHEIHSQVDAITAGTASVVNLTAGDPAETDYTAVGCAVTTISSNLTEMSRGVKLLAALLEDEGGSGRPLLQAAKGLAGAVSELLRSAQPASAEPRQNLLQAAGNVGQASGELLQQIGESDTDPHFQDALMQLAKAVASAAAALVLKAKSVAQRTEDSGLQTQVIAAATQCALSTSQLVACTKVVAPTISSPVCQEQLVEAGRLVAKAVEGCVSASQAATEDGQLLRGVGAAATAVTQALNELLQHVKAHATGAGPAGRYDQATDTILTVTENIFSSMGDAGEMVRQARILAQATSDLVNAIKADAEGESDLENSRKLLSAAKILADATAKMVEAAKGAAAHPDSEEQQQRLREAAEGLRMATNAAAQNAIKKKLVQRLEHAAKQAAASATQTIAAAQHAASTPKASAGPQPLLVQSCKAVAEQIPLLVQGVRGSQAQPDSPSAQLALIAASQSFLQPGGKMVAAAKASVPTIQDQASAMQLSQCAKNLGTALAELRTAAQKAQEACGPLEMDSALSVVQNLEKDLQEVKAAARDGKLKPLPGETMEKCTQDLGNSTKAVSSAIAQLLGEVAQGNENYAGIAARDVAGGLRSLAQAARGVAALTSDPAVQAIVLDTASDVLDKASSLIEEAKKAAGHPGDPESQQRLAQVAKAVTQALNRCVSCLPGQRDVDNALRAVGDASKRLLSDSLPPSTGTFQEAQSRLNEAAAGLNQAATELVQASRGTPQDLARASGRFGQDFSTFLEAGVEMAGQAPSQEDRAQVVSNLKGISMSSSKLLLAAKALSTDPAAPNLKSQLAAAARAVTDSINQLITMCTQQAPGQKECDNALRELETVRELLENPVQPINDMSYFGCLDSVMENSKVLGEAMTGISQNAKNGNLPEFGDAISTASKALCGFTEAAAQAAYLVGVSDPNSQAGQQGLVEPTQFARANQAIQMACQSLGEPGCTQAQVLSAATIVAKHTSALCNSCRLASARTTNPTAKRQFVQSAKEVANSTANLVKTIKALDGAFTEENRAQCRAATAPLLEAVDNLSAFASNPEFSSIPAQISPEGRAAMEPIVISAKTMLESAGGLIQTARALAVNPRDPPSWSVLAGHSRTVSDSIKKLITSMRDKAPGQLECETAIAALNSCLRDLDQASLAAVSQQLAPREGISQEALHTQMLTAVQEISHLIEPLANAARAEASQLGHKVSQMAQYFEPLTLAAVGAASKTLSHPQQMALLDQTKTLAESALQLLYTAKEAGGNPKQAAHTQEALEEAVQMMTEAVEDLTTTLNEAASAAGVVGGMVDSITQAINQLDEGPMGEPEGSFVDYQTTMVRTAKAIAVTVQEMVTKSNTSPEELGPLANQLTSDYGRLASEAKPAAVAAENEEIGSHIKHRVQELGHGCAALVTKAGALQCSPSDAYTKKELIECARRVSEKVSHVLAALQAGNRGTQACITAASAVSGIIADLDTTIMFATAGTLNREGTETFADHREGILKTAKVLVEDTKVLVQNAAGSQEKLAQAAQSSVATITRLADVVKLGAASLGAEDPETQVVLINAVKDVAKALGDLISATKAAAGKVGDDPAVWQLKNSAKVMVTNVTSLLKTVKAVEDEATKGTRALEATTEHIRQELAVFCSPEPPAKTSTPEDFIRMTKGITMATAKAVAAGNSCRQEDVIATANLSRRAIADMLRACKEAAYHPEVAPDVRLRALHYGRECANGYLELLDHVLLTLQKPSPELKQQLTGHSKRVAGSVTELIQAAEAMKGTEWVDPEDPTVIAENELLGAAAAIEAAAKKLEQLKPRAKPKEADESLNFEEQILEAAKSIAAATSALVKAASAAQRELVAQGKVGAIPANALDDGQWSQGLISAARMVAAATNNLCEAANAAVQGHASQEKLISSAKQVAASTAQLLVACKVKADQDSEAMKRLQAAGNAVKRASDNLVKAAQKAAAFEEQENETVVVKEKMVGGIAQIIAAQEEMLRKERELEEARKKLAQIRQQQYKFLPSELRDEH
UniProt P49023: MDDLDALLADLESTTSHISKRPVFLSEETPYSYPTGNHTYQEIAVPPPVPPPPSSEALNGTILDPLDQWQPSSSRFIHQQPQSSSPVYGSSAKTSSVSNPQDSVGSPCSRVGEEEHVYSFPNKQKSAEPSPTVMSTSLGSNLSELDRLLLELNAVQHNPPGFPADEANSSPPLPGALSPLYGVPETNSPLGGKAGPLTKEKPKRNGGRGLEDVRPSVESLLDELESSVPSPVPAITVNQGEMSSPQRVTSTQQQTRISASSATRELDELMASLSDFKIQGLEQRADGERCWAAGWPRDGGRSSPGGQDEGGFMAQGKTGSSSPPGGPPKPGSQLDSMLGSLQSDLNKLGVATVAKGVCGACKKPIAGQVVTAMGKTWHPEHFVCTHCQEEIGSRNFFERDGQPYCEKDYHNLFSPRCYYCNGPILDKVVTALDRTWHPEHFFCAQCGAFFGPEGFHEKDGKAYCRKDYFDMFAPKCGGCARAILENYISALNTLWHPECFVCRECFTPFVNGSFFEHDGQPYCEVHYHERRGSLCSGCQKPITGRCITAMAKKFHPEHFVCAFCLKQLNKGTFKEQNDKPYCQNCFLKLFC
UniProt Q05397: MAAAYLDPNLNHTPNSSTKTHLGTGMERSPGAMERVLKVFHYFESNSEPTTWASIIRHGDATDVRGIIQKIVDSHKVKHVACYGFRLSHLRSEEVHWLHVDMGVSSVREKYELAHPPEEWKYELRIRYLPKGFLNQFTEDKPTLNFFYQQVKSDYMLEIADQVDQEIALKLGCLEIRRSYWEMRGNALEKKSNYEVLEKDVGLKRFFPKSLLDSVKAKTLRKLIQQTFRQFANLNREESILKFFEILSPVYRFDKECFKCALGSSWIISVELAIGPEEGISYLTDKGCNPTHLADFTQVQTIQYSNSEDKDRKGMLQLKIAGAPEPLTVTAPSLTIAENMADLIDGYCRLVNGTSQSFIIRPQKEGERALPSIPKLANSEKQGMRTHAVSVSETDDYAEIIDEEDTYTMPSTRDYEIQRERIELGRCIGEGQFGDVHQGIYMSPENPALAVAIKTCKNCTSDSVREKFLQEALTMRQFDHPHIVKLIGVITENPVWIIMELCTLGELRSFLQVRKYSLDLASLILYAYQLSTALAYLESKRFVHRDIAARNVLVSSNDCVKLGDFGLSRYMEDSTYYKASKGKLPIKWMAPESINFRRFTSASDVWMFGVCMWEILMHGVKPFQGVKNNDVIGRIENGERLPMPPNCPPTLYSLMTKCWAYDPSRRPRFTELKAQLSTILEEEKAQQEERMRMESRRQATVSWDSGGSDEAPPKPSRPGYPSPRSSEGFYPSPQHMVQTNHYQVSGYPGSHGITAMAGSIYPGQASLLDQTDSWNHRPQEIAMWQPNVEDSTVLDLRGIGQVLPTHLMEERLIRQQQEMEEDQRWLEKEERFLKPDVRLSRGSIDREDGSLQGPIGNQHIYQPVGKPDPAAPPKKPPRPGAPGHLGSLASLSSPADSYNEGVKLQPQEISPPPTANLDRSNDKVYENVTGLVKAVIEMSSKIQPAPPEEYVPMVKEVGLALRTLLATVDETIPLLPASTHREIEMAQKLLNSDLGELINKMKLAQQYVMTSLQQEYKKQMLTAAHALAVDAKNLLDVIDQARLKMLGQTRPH

How the values were obtained:
Assay in all cases: pull-down; Strep-tagged PCTK3 expressed in HEK293T; lysates (TNE buffer: 20 mM Tris-HCl pH 7.5, 150 mM NaCl, 0.5% Nonidet P-40, 1 mM EDTA) incubated with Strep-Tactin Sepharose at 4 °C overnight; bound endogenous proteins detected by immunoblot
[1] = molecular target: Strep-tagged PCTK3 wild type (PCTAIRE kinase 3/cyclin-dependent kinase 18) (mouse) (UniProt Q04899)
[2] = molecular target: Strep-tagged PCTK3 S12D mutant (constitutively active) (mouse) (UniProt Q04899)
[3] = molecular target: Strep-tagged PCTK3 wild type (PCTAIRE kinase 3/cyclin-dependent kinase 18) (mouse) (UniProt Q04899); remark: listed apart in the source

talin-1 (from UniProt Q9Y490 1-2541)
binding [1]: no binding

paxillin (from UniProt P49023 1-591)
binding [1]: no binding

focal adhesion kinase (FAK) (from UniProt Q05397 1-1052) (enzyme)
binding [2]: no binding | binding [1]: binds weakly

B1: tensin-2 (protein, UniProt Q63HR2 1-1409)
chain: MKSSGPVERLLRALGRRDSSRAASRPRKAEPHSFREKVFRKKPPVCAVCKVTIDGTGVSCRVCKVATHRKCEAKVTSACQALPPVELRRNTAPVRRIEHLGSTKSLNHSKQRSTLPRSFSLDPLMERRWDLDLTYVTERILAAAFPARPDEQRHRGHLRELAHVLQSKHRDKYLLFNLSEKRHDLTRLNPKVQDFGWPELHAPPLDKLCSICKAMETWLSADPQHVVVLYCKGNKGKLGVIVSAYMHYSKISAGADQALATLTMRKFCEDKVATELQPSQRRYISYFSGLLSGSIRMNSSPLFLHYVLIPMLPAFEPGTGFQPFLKIYQSMQLVYTSGVYHIAGPGPQQLCISLEPALLLKGDVMVTCYHKGGRGTDRTLVFRVQFHTCTIHGPQLTFPKDQLDEAWTDERFPFQASVEFVFSSSPEKIKGSTPRNDPSVSVDYNTTEPAVRWDSYENFNQHHEDSVDGSLTHTRGPLDGSPYAQVQRPPRQTPPAPSPEPPPPPMLSVSSDSGHSSTLTTEPAAESPGRPPPTAAERQELDRLLGGCGVASGGRGAGRETAILDDEEQPTVGGGPHLGVYPGHRPGLSRHCSCRQGYREPCGVPNGGYYRPEGTLERRRLAYGGYEGSPQGYAEASMEKRRLCRSLSEGLYPYPPEMGKPATGDFGYRAPGYREVVILEDPGLPALYPCPACEEKLALPTAALYGLRLEREAGEGWASEAGKPLLHPVRPGHPLPLLLPACGHHHAPMPDYSCLKPPKAGEEGHEGCSYTMCPEGRYGHPGYPALVTYSYGGAVPSYCPAYGRVPHSCGSPGEGRGYPSPGAHSPRAGSISPGSPPYPQSRKLSYEIPTEEGGDRYPLPGHLASAGPLASAESLEPVSWREGPSGHSTLPRSPRDAPCSASSELSGPSTPLHTSSPVQGKESTRRQDTRSPTSAPTQRLSPGEALPPVSQAGTGKAPELPSGSGPEPLAPSPVSPTFPPSSPSDWPQERSPGGHSDGASPRSPVPTTLPGLRHAPWQGPRGPPDSPDGSPLTPVPSQMPWLVASPEPPQSSPTPAFPLAASYDTNGLSQPPLPEKRHLPGPGQQPGPWGPEQASSPARGISHHVTFAPLLSDNVPQTPEPPTQESQSNVKFVQDTSKFWYKPHLSRDQAIALLKDKDPGAFLIRDSHSFQGAYGLALKVATPPPSAQPWKGDPVEQLVRHFLIETGPKGVKIKGCPSEPYFGSLSALVSQHSISPISLPCCLRIPSKDPLEETPEAPVPTNMSTAADLLRQGAACSVLYLTSVETESLTGPQAVARASSAALSCSPRPTPAVVHFKVSAQGITLTDNQRKLFFRRHYPVNSITFSSTDPQDRRWTNPDGTTSKIFGFVAKKPGSPWENVCHLFAELDPDQPAGAIVTFITKVLLGQRK
binding [3]: no binding
